# Binding screen against folded nucleic acids

Oligonucleotides screened, 5′ to 3′:
TPP: TPP riboswitch RNA three-way junction, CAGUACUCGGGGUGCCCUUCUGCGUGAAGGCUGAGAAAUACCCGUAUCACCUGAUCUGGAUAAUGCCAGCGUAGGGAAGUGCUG. About 24,000 compounds screened, about 160 hits.
PreQ1: PreQ1 riboswitch RNA pseudoknot, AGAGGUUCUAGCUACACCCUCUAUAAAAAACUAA. From B. subtilis. About 24,000 compounds screened, about 170 hits.
SAM-II: SAM-II riboswitch RNA pseudoknot, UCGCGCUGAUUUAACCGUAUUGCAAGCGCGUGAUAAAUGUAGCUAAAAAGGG. About 21,000 compounds screened, about 200 hits.

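Each compound is printed as two spots on a slide made to bind it covalently, so it has no test concentration; the read-out is fluorescence of the bound, labelled oligonucleotide. For the PreQ1, TPP and SAM-II riboswitches the laboratory earlier reported (doi:10.1038/s41467-019-09493-3) 1 µM RNA, 2 h, and a rule that included a mean Z-score above 3 (spot signal-to-noise against the whole library), a score well above that on a control array, and duplicate spots agreeing (coefficient of variation under 100). The data file gives only the calls; its cut-offs may differ, and compounds hitting several targets are kept. These are primary screening calls, not affinities; a compound without a hit may have attached poorly or may still bind in solution.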
Key: active = hit, inactive = tested without a hit.
Compounds were drawn at random from those tested, without regard to their results.
A dash means that no call is listed here.

compound,TPP,PreQ1,SAM-II
CNC(=O)[C@@H]1C[C@H](N)CN1C(=O)Cc1c(C)nn(-c2ccccc2)c1C,inactive,inactive,inactive
COc1ccc2cc(-c3cc(N)ccn3)[nH]c2c1,inactive,inactive,inactive
CCn1cnnc1CCNc1nc(-c2cccnc2)nc2c1CNC2,inactive,inactive,inactive
CCC(C)NC(=O)c1cccc(C)c1 (stereo not shown),inactive,inactive,inactive
COc1cccc(OCC2CCCN(C(=O)c3sccc3N)C2)c1 (stereo not shown),inactive,inactive,inactive
CC(C)(O)CCc1ccc(C(=O)N(CCO)Cc2ccccc2Cl)cc1,inactive,inactive,inactive
CC(C)(C)C(=O)OCOP(=O)(COCCn1cnc2c(N)ncnc21)OCOC(=O)C(C)(C)C,inactive,inactive,inactive
c1cncc(OCCCNc2ncnc3c2CCNCC3)c1,inactive,inactive,inactive
Cc1cc(NCCN(C)C)c2ccccc2n1,inactive,inactive,inactive
CC(C)(O)CCc1ccc(C(=O)NCC(O)c2ccccn2)cc1 (stereo not shown),inactive,inactive,inactive
O=C(CCNCC(O)Cc1ccccc1)Nc1cc(F)ccc1F (stereo not shown),inactive,inactive,inactive
COC(=O)C1=C(N)Oc2cc(C)n(CC3CCCO3)c(=O)c2C1c1ccccc1 (stereo not shown),inactive,inactive,inactive
CCCOc1ccc(C2c3c(-c4ccccc4O)n[nH]c3C(=O)N2CCCO)cc1 (stereo not shown),inactive,inactive,-
Cc1nc(-c2c(C#N)c(N)nc3c2COc2ccccc2-3)c[nH]1,inactive,inactive,inactive
Cc1n[nH]c(C)c1CCN(C)CC1(O)CCCNC1 (stereo not shown),inactive,inactive,inactive
CN1CCc2nc(N)c(C#N)c(-c3ccc(Br)cc3)c2C1,inactive,inactive,inactive
Cc1cn([C@H]2C[C@H](N=[N+]=[N-])[C@@H](CO)O2)c(=O)[nH]c1=O,inactive,inactive,inactive
CCCCCCCN(CC)CCCC(O)c1ccc(NS(C)(=O)=O)cc1.CCCCCCCN(CC)CCCC(O)c1ccc(NS(C)(=O)=O)cc1.O=C(O)C=CC(=O)O (stereo not shown),inactive,inactive,inactive
Nc1c(Cl)cc(Cl)cc1[N+](=O)[O-],inactive,inactive,inactive
CCCC1(CO)CCCN(C(=O)CCn2ccc(=O)[nH]c2=O)C1 (stereo not shown),inactive,inactive,inactive
CCC1(CO)CCCN(C(=O)NCc2ccc(Cl)cc2)C1 (stereo not shown),inactive,inactive,inactive
CSc1ccccc1NC(=O)CCC(=O)N1C[C@H](OC(C)C)[C@@H](O)C1,inactive,inactive,inactive
Cc1[nH]nc2c1C1(CCSCC1)C(C#N)=C(N)O2,inactive,inactive,inactive
CNC(=O)c1nc(N2CCCCC2)sc1N,inactive,inactive,inactive
O=C(c1ccc(CNc2c(N3CCCC3)c(=O)c2=O)cc1)N1CCN(C2CCCCC2)CC1,inactive,inactive,-
COc1cccc(CNc2nc3ccc(C)cc3cc2-c2noc(C)n2)c1,inactive,inactive,-
O=C(O)c1ccc(CNCCc2ccccc2)s1,inactive,inactive,-
COC(=O)c1ccc(Cn2cnc3c(Cl)ncnc32)cc1,inactive,inactive,inactive
c1cnn(CC2CN(c3nc(C4CCCC4)nc4c3CNC4)CCCO2)c1 (stereo not shown),inactive,inactive,inactive
Cc1cc2c(cc1C)N(C(=O)CCl)CC(=O)N2,inactive,inactive,inactive
CCc1cnc(C)nc1N1CCCC(Nc2ccc3c(c2)OCO3)C1 (stereo not shown),inactive,inactive,inactive
CCOC(=O)c1cnc2ccc(C)cc2c1Nc1ccc(N(C)C)cc1,inactive,inactive,inactive
Cc1cc(NC(=O)CNCCS(=O)(=O)N(C)C)ccc1Cl,inactive,inactive,inactive
Cn1c(=O)[nH]c(=O)c2c1nc(NCc1ccccc1)n2CC(O)c1ccccc1 (stereo not shown),inactive,inactive,inactive
NCCn1cc(C(=O)Nc2cnc3n2CCCC3)nn1,inactive,inactive,inactive
O=C1NC2(CCNCC2)C(=O)N1CCc1cn[nH]c1,inactive,inactive,inactive
O=c1cc(-c2nnn[nH]2)[nH]c(=O)[nH]1,inactive,inactive,inactive
Cc1ccc2nc(NCCN)c3ncc(C)n3c2c1,inactive,inactive,inactive
COc1ccccc1-n1nc(C(C)C)nc1Cn1nnnc1N,inactive,inactive,inactive
O=Nc1c(-c2cccc([N+](=O)[O-])c2)nc2ncccn12,inactive,inactive,inactive
CCCc1cc(C(=O)NCC(O)CN2CCCCCC2)[nH]n1 (stereo not shown),inactive,inactive,inactive
Nc1cc(OC(=O)c2ccccc2)nn1S(=O)(=O)c1ccc(F)cc1,inactive,inactive,inactive
Cc1nc(C)c(CC(=O)N2CC[C@@H](c3sccc3C)[C@H](O)C2)c(=O)[nH]1,inactive,inactive,inactive
CCOc1ccc(C2C(C#N)=C(N)Oc3cc4c(cc32)OCO4)cc1OCC (stereo not shown),inactive,inactive,inactive
O=C(NCCNc1cccnc1)c1cnc(N2CCCC2)nc1,inactive,inactive,inactive
CC1CCC(=O)N1c1cccc(NC(=O)NCCCc2csc(N)n2)c1 (stereo not shown),inactive,inactive,inactive
O=C(Nc1cccc([N+](=O)[O-])c1)c1ccc2ccccc2c1O,inactive,inactive,inactive
N#CC1=C(N)OC2=C(C(=O)CCC2)C1c1cccc(OCc2ccccc2)c1 (stereo not shown),inactive,inactive,inactive
Nc1ccc(CN2C(=O)C3CCCN3C2=O)cc1 (stereo not shown),inactive,inactive,inactive
CCCSCC(=O)N1CCCC(CO)(CCC)C1 (stereo not shown),inactive,inactive,inactive
CN1CCN(C(=O)c2cccc3nccnc23)CC12CCNCC2,inactive,inactive,inactive
Br.Cc1nc(N)sc1-c1csc(Nc2ncccn2)n1,inactive,inactive,inactive
O=C(O)c1ccc(NCc2nc3ccccc3n2CCOc2ccccc2)cc1,inactive,inactive,inactive
COc1ccc(-c2ccc(CNCc3cccnc3)o2)cc1Cl,inactive,inactive,inactive
Nc1c(C(=O)Nc2ccc(Br)cc2)nnn1Cc1cccc(Cl)c1,inactive,inactive,inactive
CC(C)OC(=O)C1=C(N)Oc2c(oc(CO)cc2=O)C1c1ccccc1Cl (stereo not shown),inactive,inactive,inactive
CSc1ccccc1NC(=O)CC1Nc2ccccc2NC1=O (stereo not shown),inactive,inactive,inactive
COc1ccc([C@H]2CN(C(=O)c3ncc[nH]3)C[C@@H]2N)cc1,inactive,inactive,inactive

6 of the entries, repeated:

compound	TPP	PreQ1	SAM-II
CCCC1(CO)CCCN(C(=O)CCn2ccc(=O)[nH]c2=O)C1 (stereo not shown)	inactive	inactive	inactive
N#CC1=C(N)OC2=C(C(=O)CCC2)C1c1cccc(OCc2ccccc2)c1 (stereo not shown)	inactive	inactive	inactive
Nc1ccc(CN2C(=O)C3CCCN3C2=O)cc1 (stereo not shown)	inactive	inactive	inactive
O=Nc1c(-c2cccc([N+](=O)[O-])c2)nc2ncccn12	inactive	inactive	inactive
O=C(Nc1cccc([N+](=O)[O-])c1)c1ccc2ccccc2c1O	inactive	inactive	inactive
COC(=O)c1ccc(Cn2cnc3c(Cl)ncnc32)cc1	inactive	inactive	inactive

From ROBIN, a set of small-molecule microarray screens (doi:10.1002/anie.202211358).